Laboratory results published in patent US20160280743A1, “BACTERIAL MUTANTS AND METHODS OF USE” (priority 2015, published 2016).
At least one compound was matched to its structure with a doubt left.

How the values were obtained:
[1] = tested on: P. aeruginosa PAO1, PAO1-Pore, Δ3, Δ3-Pore; experiment: Fold MIC change between P. aeruginosa strains (OM barrier, efflux); assay type: cell-based, Pseudomonas aeruginosa
[2] = tested on: E. coli WT, WT-Pore, ΔTolC, ΔTolC-Pore; assay type: cell-based, Escherichia coli

Structure (SMILES): CO[C@H]1/C=C/O[C@@]2(C)Oc3c(C)c(O)c4c(O)c(c(/C=N/N5CCN(C)CC5)c(O)c4c3C2=O)NC(=O)/C(C)=C\C=C\[C@H](C)[C@H](O)[C@@H](C)[C@@H](O)[C@@H](C)[C@H](OC(C)=O)[C@@H]1C [Rifampicin]
- Fold MIC change, Efflux, PAO1-Pore/Δ3-Pore [1]: 1 fold
- Fold MIC change, Efflux, PAO1/Δ3 [1]: 1 fold
- Fold MIC change, OM barrier, PAO1/PAO1-Pore [1]: 32 fold
- Fold MIC change, OM barrier, Δ3/Δ3-Pore [1]: 32 fold
- Fold MIC change, Efflux, WT-Pore/ΔTolC-Pore [2]: 1 fold
- Fold MIC change, Efflux, WT/ΔTolC [2]: 1 fold
- Fold MIC change, OM barrier, WT/WT-Pore [2]: 16 fold
- Fold MIC change, OM barrier, ΔTolC/ΔTolC-Pore [2]: 16 fold
